Our source for the log2 fold change values is the supplement of paper PMC10849652.

Sequences of proteins named here, by UniProt entry; tags and fusion partners are left off. A change or cut given only in a name is not applied to a line headed by its entry.
UniProt P56377: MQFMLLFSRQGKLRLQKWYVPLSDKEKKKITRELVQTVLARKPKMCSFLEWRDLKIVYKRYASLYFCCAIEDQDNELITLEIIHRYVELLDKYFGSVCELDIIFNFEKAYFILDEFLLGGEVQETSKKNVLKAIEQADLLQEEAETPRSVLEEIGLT
UniProt Q8IZ07: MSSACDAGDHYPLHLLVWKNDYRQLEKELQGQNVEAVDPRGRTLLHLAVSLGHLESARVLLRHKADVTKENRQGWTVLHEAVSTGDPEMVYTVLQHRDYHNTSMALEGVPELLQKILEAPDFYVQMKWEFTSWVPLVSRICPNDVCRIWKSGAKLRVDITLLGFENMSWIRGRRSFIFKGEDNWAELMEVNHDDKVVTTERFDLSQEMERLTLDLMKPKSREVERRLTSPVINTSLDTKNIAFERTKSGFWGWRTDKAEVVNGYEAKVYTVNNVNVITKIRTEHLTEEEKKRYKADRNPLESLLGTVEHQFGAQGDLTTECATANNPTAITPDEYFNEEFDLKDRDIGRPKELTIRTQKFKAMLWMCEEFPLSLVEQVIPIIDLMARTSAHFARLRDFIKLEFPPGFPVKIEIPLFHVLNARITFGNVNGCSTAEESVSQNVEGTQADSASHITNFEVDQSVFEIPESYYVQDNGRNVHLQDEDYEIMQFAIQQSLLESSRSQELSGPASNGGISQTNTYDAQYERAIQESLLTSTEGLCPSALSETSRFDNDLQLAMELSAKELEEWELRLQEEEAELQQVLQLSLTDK
UniProt P31751: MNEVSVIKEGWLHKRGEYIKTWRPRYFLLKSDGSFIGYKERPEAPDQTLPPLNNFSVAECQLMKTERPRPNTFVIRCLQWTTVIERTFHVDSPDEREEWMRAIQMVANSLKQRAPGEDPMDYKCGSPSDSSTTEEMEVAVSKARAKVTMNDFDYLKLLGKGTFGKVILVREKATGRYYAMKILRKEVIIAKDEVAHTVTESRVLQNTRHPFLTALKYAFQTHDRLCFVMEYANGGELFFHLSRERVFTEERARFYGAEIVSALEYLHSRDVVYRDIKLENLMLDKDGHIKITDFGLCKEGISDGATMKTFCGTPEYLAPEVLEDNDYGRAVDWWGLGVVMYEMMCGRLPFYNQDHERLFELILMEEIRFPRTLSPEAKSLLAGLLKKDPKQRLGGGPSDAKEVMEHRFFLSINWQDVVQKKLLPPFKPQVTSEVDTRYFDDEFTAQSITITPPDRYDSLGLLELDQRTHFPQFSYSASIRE
UniProt P09525: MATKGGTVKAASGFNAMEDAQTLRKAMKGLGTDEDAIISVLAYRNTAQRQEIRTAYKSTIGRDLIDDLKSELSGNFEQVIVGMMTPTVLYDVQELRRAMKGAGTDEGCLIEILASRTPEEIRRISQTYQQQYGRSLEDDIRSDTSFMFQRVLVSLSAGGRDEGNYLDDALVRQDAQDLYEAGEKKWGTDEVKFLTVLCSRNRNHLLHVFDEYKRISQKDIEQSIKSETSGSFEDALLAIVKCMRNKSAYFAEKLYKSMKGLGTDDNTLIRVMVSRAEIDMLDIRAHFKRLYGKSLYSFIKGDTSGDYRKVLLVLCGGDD
UniProt Q9H1A4, whole entry, looked up: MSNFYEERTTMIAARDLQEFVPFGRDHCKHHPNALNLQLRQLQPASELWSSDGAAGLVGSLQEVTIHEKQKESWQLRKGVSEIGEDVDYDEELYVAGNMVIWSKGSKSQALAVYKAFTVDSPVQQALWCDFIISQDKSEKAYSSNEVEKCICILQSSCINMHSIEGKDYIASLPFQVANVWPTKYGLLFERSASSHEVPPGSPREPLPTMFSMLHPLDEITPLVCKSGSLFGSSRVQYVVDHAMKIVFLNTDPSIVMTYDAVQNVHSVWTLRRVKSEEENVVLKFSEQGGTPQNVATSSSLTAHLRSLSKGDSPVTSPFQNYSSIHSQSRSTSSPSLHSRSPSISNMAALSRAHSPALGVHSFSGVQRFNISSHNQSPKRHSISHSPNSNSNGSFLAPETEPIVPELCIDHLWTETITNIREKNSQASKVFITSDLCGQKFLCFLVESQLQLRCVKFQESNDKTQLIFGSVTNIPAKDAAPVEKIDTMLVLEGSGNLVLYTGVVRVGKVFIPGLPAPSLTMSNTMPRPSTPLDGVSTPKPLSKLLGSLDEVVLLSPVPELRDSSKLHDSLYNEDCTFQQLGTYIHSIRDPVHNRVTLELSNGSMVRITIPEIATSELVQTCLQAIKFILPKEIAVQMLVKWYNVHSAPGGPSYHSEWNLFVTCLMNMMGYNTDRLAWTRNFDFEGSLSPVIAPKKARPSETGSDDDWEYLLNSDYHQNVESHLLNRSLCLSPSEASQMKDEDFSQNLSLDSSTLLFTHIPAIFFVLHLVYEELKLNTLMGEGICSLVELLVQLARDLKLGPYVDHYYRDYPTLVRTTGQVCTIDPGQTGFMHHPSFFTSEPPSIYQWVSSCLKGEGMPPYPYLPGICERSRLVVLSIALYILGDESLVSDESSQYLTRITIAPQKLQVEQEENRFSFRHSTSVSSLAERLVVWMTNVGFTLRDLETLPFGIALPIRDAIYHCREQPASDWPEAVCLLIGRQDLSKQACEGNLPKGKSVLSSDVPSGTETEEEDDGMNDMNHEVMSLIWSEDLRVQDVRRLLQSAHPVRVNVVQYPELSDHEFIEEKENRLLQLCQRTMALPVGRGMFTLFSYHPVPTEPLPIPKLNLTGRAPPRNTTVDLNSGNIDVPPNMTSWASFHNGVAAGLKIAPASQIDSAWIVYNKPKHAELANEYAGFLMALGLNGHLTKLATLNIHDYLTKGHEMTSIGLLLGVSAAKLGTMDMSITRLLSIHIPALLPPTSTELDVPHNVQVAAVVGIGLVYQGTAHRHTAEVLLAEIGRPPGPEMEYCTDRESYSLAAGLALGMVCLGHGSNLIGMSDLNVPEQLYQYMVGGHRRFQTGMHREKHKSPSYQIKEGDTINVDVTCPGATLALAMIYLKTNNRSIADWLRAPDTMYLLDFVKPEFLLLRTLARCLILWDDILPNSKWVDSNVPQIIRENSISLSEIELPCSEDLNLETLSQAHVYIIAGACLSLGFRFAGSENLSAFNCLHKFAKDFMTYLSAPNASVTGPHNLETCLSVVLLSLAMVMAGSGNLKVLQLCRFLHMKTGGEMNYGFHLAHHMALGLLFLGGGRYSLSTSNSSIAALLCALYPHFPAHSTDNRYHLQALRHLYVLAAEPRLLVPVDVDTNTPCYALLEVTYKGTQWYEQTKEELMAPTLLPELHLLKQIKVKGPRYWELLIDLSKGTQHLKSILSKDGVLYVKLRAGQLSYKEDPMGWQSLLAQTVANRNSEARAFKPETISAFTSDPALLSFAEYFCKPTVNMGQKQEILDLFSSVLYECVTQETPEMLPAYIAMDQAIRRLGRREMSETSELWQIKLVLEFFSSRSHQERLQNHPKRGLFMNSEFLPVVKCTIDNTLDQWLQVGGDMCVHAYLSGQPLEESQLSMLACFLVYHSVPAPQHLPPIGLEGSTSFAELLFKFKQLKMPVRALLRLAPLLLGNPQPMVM
UniProt P16157: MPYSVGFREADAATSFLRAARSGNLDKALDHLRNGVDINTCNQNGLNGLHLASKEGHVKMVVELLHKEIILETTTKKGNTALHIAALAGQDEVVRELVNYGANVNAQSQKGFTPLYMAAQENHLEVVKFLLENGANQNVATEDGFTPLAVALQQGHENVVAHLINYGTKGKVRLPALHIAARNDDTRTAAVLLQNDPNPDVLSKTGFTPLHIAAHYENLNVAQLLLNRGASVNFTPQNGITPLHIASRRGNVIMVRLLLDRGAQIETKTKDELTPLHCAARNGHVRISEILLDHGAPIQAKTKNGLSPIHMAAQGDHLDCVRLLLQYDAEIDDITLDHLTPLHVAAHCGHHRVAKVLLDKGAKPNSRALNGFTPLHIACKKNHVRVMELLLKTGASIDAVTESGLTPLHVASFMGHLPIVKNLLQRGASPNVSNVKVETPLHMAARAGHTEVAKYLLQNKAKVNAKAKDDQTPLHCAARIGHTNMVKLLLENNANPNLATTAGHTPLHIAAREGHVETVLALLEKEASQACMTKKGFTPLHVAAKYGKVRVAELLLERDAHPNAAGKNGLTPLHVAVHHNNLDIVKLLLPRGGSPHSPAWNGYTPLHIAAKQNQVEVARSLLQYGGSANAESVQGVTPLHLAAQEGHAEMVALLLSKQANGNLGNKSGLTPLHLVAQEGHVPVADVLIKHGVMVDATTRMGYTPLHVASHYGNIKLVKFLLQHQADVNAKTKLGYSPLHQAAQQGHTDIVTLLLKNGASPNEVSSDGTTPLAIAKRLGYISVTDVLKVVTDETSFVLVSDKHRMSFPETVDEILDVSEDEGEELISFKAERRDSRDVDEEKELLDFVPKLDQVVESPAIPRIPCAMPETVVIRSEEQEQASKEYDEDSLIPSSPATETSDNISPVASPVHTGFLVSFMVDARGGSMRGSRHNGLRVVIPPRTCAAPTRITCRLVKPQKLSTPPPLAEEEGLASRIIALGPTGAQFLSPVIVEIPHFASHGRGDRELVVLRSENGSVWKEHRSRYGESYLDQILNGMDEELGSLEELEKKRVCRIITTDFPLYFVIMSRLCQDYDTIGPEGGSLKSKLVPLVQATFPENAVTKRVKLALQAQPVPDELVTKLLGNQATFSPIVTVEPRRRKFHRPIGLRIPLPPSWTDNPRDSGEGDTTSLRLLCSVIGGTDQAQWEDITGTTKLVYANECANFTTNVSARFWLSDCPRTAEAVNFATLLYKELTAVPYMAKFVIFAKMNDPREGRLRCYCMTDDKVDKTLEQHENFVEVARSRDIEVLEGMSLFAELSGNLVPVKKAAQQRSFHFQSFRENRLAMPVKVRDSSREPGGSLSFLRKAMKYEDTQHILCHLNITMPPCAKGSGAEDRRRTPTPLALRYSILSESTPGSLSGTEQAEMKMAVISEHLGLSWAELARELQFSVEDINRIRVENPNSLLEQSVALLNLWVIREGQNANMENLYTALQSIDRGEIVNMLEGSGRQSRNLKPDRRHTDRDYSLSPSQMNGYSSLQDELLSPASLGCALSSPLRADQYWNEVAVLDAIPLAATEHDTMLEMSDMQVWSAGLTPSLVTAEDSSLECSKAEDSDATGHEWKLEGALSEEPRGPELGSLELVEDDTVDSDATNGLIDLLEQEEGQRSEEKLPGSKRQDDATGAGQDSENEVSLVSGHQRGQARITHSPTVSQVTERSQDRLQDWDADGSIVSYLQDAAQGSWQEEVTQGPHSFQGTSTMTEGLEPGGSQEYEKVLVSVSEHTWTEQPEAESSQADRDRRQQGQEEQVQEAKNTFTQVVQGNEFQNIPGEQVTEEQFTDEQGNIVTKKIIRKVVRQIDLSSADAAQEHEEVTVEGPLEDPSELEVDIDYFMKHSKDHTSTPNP
UniProt Q9NW15: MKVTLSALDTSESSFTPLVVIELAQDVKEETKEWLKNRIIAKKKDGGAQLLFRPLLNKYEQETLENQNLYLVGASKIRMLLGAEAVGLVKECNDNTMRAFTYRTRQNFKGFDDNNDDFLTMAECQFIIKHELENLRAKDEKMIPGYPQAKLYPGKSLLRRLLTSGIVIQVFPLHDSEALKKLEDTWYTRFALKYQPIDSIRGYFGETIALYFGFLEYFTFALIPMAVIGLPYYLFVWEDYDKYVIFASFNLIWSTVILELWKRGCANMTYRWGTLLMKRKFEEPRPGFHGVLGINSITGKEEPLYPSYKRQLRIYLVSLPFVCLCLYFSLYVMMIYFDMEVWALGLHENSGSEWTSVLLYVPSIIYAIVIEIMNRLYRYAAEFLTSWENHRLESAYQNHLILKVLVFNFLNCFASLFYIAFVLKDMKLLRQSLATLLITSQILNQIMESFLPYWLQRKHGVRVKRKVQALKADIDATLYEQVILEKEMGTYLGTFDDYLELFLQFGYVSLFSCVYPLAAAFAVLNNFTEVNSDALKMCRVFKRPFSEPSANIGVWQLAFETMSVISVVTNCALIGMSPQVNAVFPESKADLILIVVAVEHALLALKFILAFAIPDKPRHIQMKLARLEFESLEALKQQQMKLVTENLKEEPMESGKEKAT
UniProt Q9UM13, whole entry, looked up: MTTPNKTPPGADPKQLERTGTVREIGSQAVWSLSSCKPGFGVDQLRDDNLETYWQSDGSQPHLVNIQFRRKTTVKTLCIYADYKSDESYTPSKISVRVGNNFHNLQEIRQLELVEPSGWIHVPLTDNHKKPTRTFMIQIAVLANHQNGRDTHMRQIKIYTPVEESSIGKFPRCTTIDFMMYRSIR

This is one part of the list.

Holding throughout (assay): log2 fold change, soluble protein after heating vs DMSO (PISA); higher = thermal stabilisation; K562 lysate, 10 uM; active = over 0.2 and 3.5 SD of the protein, either way, in both replicates (recomputed)
Compound in experiment [1]: C1=CC=C(C=C1)[C@H](COC2=CC3=C(C=C2)NC(=O)N3)NC(=O)C4=CC=CN(C4=O)CC5=CC(=C(C=C5)F)F
The procedure, abridged:
(§1)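 Following dounce homogenisation of K562 pellets in PBS pH 7.4 with 1 mM MgCl2, crude extract at 1 mg/mL protein was incubated for 30 min with 10 μM compound. Aliquots were then heated for 3 min over 48°C-58°C and pooled, NP-40 was added to 0.5% at 4°C, and soluble protein was recovered as the supernatant at 21,000xg for 90 min. Channel-sum-equalised TMTpro 16plex LC-MS/MS quantified this protein. Each value, from duplicates, is a log-two fold change in thermal stability relative to solvent controls.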

Compound in experiment [2]: CC1=C(SC2=C1C(=N[C@H](C3=NN=C(N32)C)CC(=O)N)C4=CC=C(C=C4)Cl)C
The essentials: as §1

Compound in experiment [3]: CC1=C2C(=CC=C1)N=C(N(C2=O)C3=CC=CC=C3C)CN4C=NC5=C(N=CN=C54)N
The essentials: as §1

Compound in experiment [4]: c1ccc([C@@H]2C[C@H]2NC2CCNCC2)cc1
The procedure, abridged: as §1

Compound in experiment [5]: Cc1sc2c(c1C)C(c1ccc(Cl)cc1)=N[C@@H](CC(=O)OC(C)(C)C)c1nnc(C)n1-2
The essentials: as §1

Regarding AP1S2 (UniProt P56377), the log2 fold change was inactive: -0.115 in experiment [1], inactive: -0.078 in experiment [2], inactive: -0.124 in experiment [3] and inactive: 0.186 in experiment [4].
For ANKRD13A (UniProt Q8IZ07), the log2 fold change in experiment [1] was inactive: 0.025; in experiment [2], inactive: 0.055; in experiment [3] it was inactive: 0.01; in experiment [5] it was inactive: -0.062; in experiment [4] it was inactive: 0.008.
Regarding AKT2 (UniProt P31751), the log2 fold change in experiment [1] is inactive: 0.011; in experiment [2] it was inactive: 0.003; in experiment [3], inactive: 0.031; in experiment [5] it was inactive: 0.02; in experiment [4] it was inactive: 0.028.
For ANXA4 (UniProt P09525), in that order: inactive: 0.011, inactive: 0.003, inactive: 0.01, inactive: -0.023 and inactive: 0.034.
For ANAPC1 (UniProt Q9H1A4), in that order: inactive: -0.034, inactive: 0.023, inactive: 0.073, inactive: 0.012 and inactive: 0.003.
For ANK1 isoform 14 (UniProt P16157), in that order: inactive: -0.026, inactive: 0.039, inactive: 0.031, inactive: 0.012 and inactive: 0.058.
In the case of ANKRD44 isoform 2 (UniProt Q8N8A2), the log2 fold change is inactive: -0.032 in experiment [1], inactive: -0.045 in experiment [2], inactive: 0.019 in experiment [3] and active: -1 in experiment [4].
As for ANO10 (UniProt Q9NW15), the log2 fold change in experiment [1] is inactive: 0.011; in experiment [2] it was inactive: 0.017; in experiment [3], inactive: 0.03; in experiment [5] it was inactive: 0.006; in experiment [4] it was inactive: 0.014.
With ANAPC10 (UniProt Q9UM13), the log2 fold change in experiment [1] was inactive: 0.022; in experiment [2] it was inactive: 0.003; in experiment [3], inactive: -0.036; in experiment [5], inactive: -0.041; in experiment [4], inactive: 0.001.
